These are yes or no findings as the source states them, for the method shown. Binding seen in cells or lysates may run through a third protein. Some results given as binding are weak or reduced against the parent protein; the word gives no strength.

By UniProt entry, the sequences of proteins in these tests, tags left out. Where a name states a change or a piece, a line headed by the entry shows the natural chain unless it says otherwise.
UniProt P11387: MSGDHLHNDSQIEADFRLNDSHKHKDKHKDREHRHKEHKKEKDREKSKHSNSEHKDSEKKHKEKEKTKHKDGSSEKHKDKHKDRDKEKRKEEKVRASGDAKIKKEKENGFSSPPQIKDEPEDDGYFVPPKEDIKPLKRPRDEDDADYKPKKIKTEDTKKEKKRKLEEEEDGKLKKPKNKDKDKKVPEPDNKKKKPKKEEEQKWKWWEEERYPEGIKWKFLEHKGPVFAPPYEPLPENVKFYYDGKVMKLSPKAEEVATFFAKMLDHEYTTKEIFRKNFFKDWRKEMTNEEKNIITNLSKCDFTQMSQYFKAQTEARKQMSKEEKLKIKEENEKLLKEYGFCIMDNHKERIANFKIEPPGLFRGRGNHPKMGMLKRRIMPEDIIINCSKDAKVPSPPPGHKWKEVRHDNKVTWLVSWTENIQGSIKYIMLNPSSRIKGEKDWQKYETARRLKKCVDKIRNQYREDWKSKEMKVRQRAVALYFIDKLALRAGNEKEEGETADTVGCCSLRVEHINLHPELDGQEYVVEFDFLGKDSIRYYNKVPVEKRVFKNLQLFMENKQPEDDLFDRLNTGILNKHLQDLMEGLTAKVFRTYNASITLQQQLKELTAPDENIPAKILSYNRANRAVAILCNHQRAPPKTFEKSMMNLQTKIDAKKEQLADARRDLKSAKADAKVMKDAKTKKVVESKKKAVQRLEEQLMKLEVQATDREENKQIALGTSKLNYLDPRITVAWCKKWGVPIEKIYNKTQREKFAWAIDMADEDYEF
UniProt P38398: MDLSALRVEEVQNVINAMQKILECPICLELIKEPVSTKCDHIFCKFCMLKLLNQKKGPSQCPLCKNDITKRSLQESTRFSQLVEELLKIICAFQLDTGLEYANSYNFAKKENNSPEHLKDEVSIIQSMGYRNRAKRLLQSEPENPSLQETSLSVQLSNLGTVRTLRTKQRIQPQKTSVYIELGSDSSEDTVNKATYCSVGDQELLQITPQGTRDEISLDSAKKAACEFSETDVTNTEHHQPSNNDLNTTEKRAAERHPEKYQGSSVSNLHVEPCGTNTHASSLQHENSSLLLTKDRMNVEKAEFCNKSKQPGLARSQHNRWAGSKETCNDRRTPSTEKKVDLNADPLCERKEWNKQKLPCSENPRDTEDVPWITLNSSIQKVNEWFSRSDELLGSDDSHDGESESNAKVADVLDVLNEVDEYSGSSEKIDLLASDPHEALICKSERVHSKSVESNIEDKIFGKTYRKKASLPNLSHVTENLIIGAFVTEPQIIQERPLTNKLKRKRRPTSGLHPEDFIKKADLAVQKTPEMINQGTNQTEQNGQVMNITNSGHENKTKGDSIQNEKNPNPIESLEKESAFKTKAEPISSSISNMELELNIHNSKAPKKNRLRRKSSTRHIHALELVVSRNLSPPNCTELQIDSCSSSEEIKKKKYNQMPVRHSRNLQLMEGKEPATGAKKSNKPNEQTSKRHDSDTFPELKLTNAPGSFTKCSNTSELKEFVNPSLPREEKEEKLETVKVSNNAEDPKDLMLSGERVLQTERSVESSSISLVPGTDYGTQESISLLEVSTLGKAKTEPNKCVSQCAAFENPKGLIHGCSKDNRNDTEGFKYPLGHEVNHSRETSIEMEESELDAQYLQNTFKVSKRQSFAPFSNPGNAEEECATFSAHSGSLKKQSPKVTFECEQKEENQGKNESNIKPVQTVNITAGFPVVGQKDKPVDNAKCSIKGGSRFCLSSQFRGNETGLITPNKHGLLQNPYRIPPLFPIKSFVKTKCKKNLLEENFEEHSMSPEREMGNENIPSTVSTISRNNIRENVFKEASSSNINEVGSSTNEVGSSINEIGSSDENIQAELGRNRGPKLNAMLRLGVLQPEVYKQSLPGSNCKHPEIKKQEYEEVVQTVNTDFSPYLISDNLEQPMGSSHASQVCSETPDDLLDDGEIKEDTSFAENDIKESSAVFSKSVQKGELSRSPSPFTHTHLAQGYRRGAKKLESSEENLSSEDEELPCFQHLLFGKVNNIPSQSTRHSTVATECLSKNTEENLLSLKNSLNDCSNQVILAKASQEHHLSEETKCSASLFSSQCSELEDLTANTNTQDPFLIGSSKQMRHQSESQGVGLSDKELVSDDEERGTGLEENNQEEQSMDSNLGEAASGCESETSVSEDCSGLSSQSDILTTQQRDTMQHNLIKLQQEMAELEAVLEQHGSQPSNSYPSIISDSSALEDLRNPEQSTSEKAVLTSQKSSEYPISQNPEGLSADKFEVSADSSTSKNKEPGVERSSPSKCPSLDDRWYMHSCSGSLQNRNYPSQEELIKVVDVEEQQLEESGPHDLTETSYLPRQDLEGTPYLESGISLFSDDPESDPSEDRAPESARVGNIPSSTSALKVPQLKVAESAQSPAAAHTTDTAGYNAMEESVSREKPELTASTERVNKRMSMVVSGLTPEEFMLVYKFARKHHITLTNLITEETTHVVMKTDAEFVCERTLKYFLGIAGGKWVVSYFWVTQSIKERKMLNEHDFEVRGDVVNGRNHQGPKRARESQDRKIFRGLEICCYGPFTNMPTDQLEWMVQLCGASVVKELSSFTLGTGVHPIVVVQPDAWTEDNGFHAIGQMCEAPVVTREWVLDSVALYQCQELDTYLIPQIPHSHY

The values below come from US20150285801A1.

The target in this assay is topoisomerase I (human) (UniProt P11387). The assay is described as follows: GST pull-down of purified topo I, immunoblot with anti-topoI. In general terms: Immunoblotting shows a protein as a band on a membrane.

Consider “GST-BRCT (from UniProt P38398 1650-1863)”, for which the binding result is given as “binds”.
